Experimental data as given in PubChem BioAssay AID328 (DTP/NCI, 2004).
The list shows only some results of the screen, not a fair sample: it gathers tests that were run many times, whatever their T/C, doses with no T/C, and many T/C values between a quarter and a half above the control. Further doses and runs are listed elsewhere. T/C: endpoint of the treated group in % of that of the vehicle group. Some doses have a count of surviving animals in place of a T/C: the source holds a T/C of zero for them, seemingly a mark for toxic or unscored doses. Some survivor counts are full or nearly so, which does not show that the dose was tolerated: survival well below the control is almost never listed, so the zero probably covers shortened survival too. Survivors were counted at the toxicity check, usually on the fifth day, unless a day is given; later deaths do not show. Schedules are NCI's codes, taken here to give the interval after Q, in days (D) or hours (H), and the number of doses after X. Some structures stand for samples that the source files as different forms (salt, stereo form or complex); doses refer to the form tested.

Test system: BDF1 mice, P388 leukemia ip, median survival T/C
Test: NCI In Vivo Anticancer Drug Screen. Data for tumor model P388 Leukemia (intraperitoneal) in B6D2F1 (BDF1) mice
Conditions: T/C endpoint: median survival time, higher T/C = longer survival
Protocol: The antitumor activity of compounds was measured in mice bearing transplantable tumors. Survival or tumor size were measured and the results are expressed as the measurement made in the treated group (T) divided by the measurement made in the vehicle treated control group (C). The tumor model used in this assay is P388 Leukemia (intraperitoneal) in B6D2F1 (BDF1) mice

For `CCOC(=O)C[n+]1ccccc1`, the survivor count (dose: 150.0 mg/kg/injection, schedule: Q01DX009 (ip), vehicle: saline) was 0 of 6, the survivor count (dose: 200.0 mg/kg/injection, schedule: Q04DX003 (ip), vehicle: saline with Tween-80) was 5 of 6 and the survivor count (dose: 225.0 mg/kg/injection, schedule: Q01DX009 (ip), vehicle: saline) was 0 of 6. The survivor count (dose: 300.0 mg/kg/injection, schedule: Q04DX003 (ip), vehicle: saline) was 1 of 6.
